Data as given in US10646479B2, “Use of N-(4-iodobenzoylamino)-5-ethyl-1,2,3,6-tetrahydropyridine as a treatment for cancer” (Florida A&M University, priority 2018, dated 2020).

Test system: MDA-MB-231 cell line
Test: CellTiter-Glo (CTG) luminescent cell viability assay, MDA-MB-231 cells
Assay type: cell-based
Conditions: Homo sapiens, MDA-MB-231 triple negative breast cancer cells
Protocol: This compound was evaluated against three types of cancer cells: Ishikawa, MDA-MB-231, and MCF-7 using the CellTiter-Glo (CTG) luminescent cell viability assay. Ishikawa cell line is an endometrial adenocarcinoma isolated from a person. MDA-MB-231 is a triple negative breast cancer cell line isolated from a person. MCF-7 is an estrogen receptor positive breast cancer cell line isolated from a person. […] Tamoxifen is a selective estrogen receptor modulator (SERM).

IC50: 29.4 µM
SMILES: CC/C(=C(\c1ccccc1)c1ccc(OCCN(C)C)cc1)c1ccccc1 [Tamoxifen, reference compound]
